# Experimental data published in the supplement of paper PMC8728848.
# The other results are listed elsewhere or left out.
# B1: HA-61200 (Pseudomonas aeruginosa), Q02SP8_PSEAB (protein)
# chain: MNKCYALVWNVSQGCWNVVSEGSRRRGKPAGAKAAIASVLALLGATALAPAYALPSGGTVVGGSANGEIHLSGGNSLSVNQKVDKLIANWDSFSVAAGERVIFNQPSSSSIALNRVIGTKASDIQGRIDANGQVFLVNPNGVLFGRGAQVNVGGLVASTLDITDAEFNGNSSRYRFTGPSTNGVLNHGGAITAAEGGSIALLGAQVDNRGTVLAQMGGVGLGAGSDLTLNFDGNKLLDIRVDAGVANALASNGGLLKADGGRVLMAARTANALLNTVVNSQGAIEARSLRGKNGRIVLDG
# Columns and labels:
# Experiment in all cases: glycan array binding signal (z-score within array); higher = stronger binding
# Details in all cases: glycan notation: IUPAC condensed, linker removed
# [1] = biological target: Neu5Ac(a2-3)Gal(b1-4)GlcNAc(b1-3)Gal(b1-4)GlcNAc(b1-2)Man(a1-3)[Neu5Ac(a2-3)Gal(b1-4)GlcNAc(b1-3)Gal(b1-4)GlcNAc(b1-2)Man(a1-6)]Man(b1-4)GlcNAc(b1-4)GlcNAc
# Summary of the method: (§1)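 Glycan array data were curated from 3228 arrays in the Consortium for Functional Glycomics database and kept only where the protein sequence was available. Glycan names were converted to IUPAC-condensed notation, and columns mapping to the same glycan were averaged. The binding signal is a within-array Z-score, averaged across arrays of the same protein sequence at different concentrations or buffers and across linkers. Negative Z-scores can be read as non-binding.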
# [2] = biological target: Neu5Ac(a2-3)Gal(b1-4)GlcNAc(b1-3)Gal(b1-4)GlcNAc(b1-3)Gal(b1-4)GlcNAc
# Summary of the method: as §1
# [3] = biological target: Neu5Ac(a2-3)Gal(b1-4)GlcNAc(b1-3)Gal(b1-4)GlcNAc(b1-3)Gal(b1-4)GlcNAc(b1-2)Man(a1-3)[Neu5Ac(a2-3)Gal(b1-4)GlcNAc(b1-3)Gal(b1-4)GlcNAc(b1-3)Gal(b1-4)GlcNAc(b1-2)Man(a1-6)]GalNAc
# Summary of the method: as §1
# [4] = biological target: Neu5Ac(a2-3)Gal(b1-4)GlcNAc(b1-3)Gal(b1-4)GlcNAc(b1-3)GalNAc
# Summary of the method: as §1
# [5] = biological target: Neu5Ac(a2-3)Gal(b1-4)GlcNAc(b1-3)Gal(b1-4)GlcNAc(b1-3)[Neu5Ac(a2-3)Gal(b1-4)GlcNAc(b1-3)Gal(b1-4)GlcNAc(b1-6)]GalNAc
# Summary of the method: as §1
# [6] = biological target: Neu5Ac(a2-3)Gal(b1-4)GlcNAc(b1-3)Gal(b1-4)GlcNAc(b1-6)[Gal(b1-3)]GalNAc
# Summary of the method: as §1
# [7] = biological target: Neu5Ac(a2-3)Gal(b1-4)GlcNAc(b1-3)Gal(b1-4)[Fuc(a1-3)]GlcNAc
# Summary of the method: as §1
# [8] = biological target: Neu5Ac(a2-3)Gal(b1-4)GlcNAc(b1-3)GalNAc
# Summary of the method: as §1
# [9] = biological target: Neu5Ac(a2-3)Gal(b1-4)GlcNAc(b1-3)[Neu5Ac(a2-3)Gal(b1-4)GlcNAc(b1-6)]GalNAc
# Summary of the method: as §1
# [10] = biological target: Neu5Ac(a2-3)Gal(b1-4)GlcNAc(b1-6)GalNAc
# Summary of the method: as §1
# [11] = biological target: Neu5Ac(a2-3)Gal(b1-4)GlcNAc(b1-6)[Gal(b1-3)]GalNAc
# Summary of the method: as §1
# [12] = biological target: Neu5Ac(a2-3)Gal(b1-4)GlcNAc(b1-6)[Neu5Ac(a2-3)Gal(b1-3)]GalNAc
# Summary of the method: as §1
# [13] = biological target: Neu5Ac(a2-3)Gal(b1-4)GlcNAc6S
# Summary of the method: as §1
# [14] = biological target: Neu5Ac(a2-3)Gal(b1-4)[Fuc(a1-3)]GlcNAc
# Summary of the method: as §1
# [15] = biological target: Neu5Ac(a2-3)Gal(b1-4)[Fuc(a1-3)]GlcNAc(b1-2)Man
# Summary of the method: as §1
# [16] = biological target: Neu5Ac(a2-3)Gal(b1-4)[Fuc(a1-3)]GlcNAc(b1-3)Gal
# Summary of the method: as §1
# [17] = biological target: Neu5Ac(a2-3)Gal(b1-4)[Fuc(a1-3)]GlcNAc(b1-3)Gal(b1-4)GlcNAc
# Summary of the method: as §1
# [18] = biological target: Neu5Ac(a2-3)Gal(b1-4)[Fuc(a1-3)]GlcNAc(b1-3)Gal(b1-4)[Fuc(a1-3)]GlcNAc(b1-3)Gal(b1-4)[Fuc(a1-3)]GlcNAc
# Summary of the method: as §1
# [19] = biological target: Neu5Ac(a2-3)Gal(b1-4)[Fuc(a1-3)]GlcNAc(b1-3)GalNAc
# Summary of the method: as §1
# [20] = biological target: Neu5Ac(a2-3)Gal(b1-4)[Fuc(a1-3)]GlcNAc(b1-6)[Gal(b1-3)]GalNAc
# Summary of the method: as §1
# [21] = biological target: Neu5Ac(a2-3)Gal(b1-4)[Fuc(a1-3)]GlcNAc(b1-6)[Neu5Ac(a2-3)Gal(b1-3)]GalNAc
# Summary of the method: as §1
# [22] = biological target: Neu5Ac(a2-3)Gal(b1-4)[Fuc(a1-3)]GlcNAc6S
# Summary of the method: as §1
# [23] = biological target: Neu5Ac(a2-3)Gal6S(b1-4)GlcNAc
# Summary of the method: as §1
# [24] = biological target: Neu5Ac(a2-3)Gal6S(b1-4)[Fuc(a1-3)]GlcNAc
# Summary of the method: as §1
# Neu5Ac(a2-3)GalNAc = biological target: Neu5Ac(a2-3)GalNAc
# Summary of the method: as §1
# [25] = biological target: Neu5Ac(a2-3)GalNAc(b1-4)GlcNAc
# Summary of the method: as §1
# [26] = biological target: Neu5Ac(a2-3)[GalNAc(b1-4)]Gal(b1-4)Glc
# Summary of the method: as §1
# [27] = biological target: Neu5Ac(a2-3)[GalNAc(b1-4)]Gal(b1-4)GlcNAc
# Summary of the method: as §1
# [28] = biological target: Neu5Ac(a2-3)[GalNAc(b1-4)]Gal(b1-4)GlcNAc(b1-3)GalNAc
# Summary of the method: as §1
# [29] = biological target: Neu5Ac(a2-3)[Neu5Ac(a2-6)]GalNAc
# Summary of the method: as §1
# Neu5Ac(a2-6)Gal = biological target: Neu5Ac(a2-6)Gal
# Summary of the method: as §1
# [30] = biological target: Neu5Ac(a2-6)Gal(b1-3)GlcNAc(b1-3)[Gal(b1-4)GlcNAc(b1-6)]Gal(b1-4)Glc
# Summary of the method: as §1
# Neu5Ac(a2-6)Gal(b1-4)Glc = biological target: Neu5Ac(a2-6)Gal(b1-4)Glc
# Summary of the method: as §1
# [31] = biological target: Neu5Ac(a2-6)Gal(b1-4)GlcNAc
# Summary of the method: as §1
# [32] = biological target: Neu5Ac(a2-6)Gal(b1-4)GlcNAc(b1-2)Man
# Summary of the method: as §1
# [33] = biological target: Neu5Ac(a2-6)Gal(b1-4)GlcNAc(b1-2)Man(a1-3)Man(b1-4)GlcNAc(b1-4)GlcNAc
# Summary of the method: as §1
# [34] = biological target: Neu5Ac(a2-6)Gal(b1-4)GlcNAc(b1-2)Man(a1-3)[Gal(b1-4)GlcNAc(b1-2)Man(a1-6)]Man(b1-4)GlcNAc(b1-4)GlcNAc
# Summary of the method: as §1
# [35] = biological target: Neu5Ac(a2-6)Gal(b1-4)GlcNAc(b1-2)Man(a1-3)[GlcNAc(b1-2)Man(a1-6)]Man(b1-4)GlcNAc(b1-4)GlcNAc
# Summary of the method: as §1
binder,measurement,setting,value
B1,glycan array binding signal (z-score),[1],-1.17
same,glycan array binding signal (z-score),[2],-0.357
same,glycan array binding signal (z-score),[3],3.75
same,glycan array binding signal (z-score),[4],-0.734
same,glycan array binding signal (z-score),[5],0.774
same,glycan array binding signal (z-score),[6],-0.672
same,glycan array binding signal (z-score),[7],-0.558
same,glycan array binding signal (z-score),[8],-0.944
same,glycan array binding signal (z-score),[9],-0.699
same,glycan array binding signal (z-score),[10],0.552
same,glycan array binding signal (z-score),[11],-0.364
same,glycan array binding signal (z-score),[12],-1.3
same,glycan array binding signal (z-score),[13],0.028
same,glycan array binding signal (z-score),[14],-0.612
same,glycan array binding signal (z-score),[15],-0.78
same,glycan array binding signal (z-score),[16],-0.478
same,glycan array binding signal (z-score),[17],-0.195
same,glycan array binding signal (z-score),[18],-0.302
same,glycan array binding signal (z-score),[19],1.98
same,glycan array binding signal (z-score),[20],0.387
same,glycan array binding signal (z-score),[21],-0.08
same,glycan array binding signal (z-score),[22],-0.953
same,glycan array binding signal (z-score),[23],0.034
same,glycan array binding signal (z-score),[24],-1.2
same,glycan array binding signal (z-score),Neu5Ac(a2-3)GalNAc,-1.04
same,glycan array binding signal (z-score),[25],-1.46
same,glycan array binding signal (z-score),[26],-0.687
same,glycan array binding signal (z-score),[27],-0.699
same,glycan array binding signal (z-score),[28],0.724
same,glycan array binding signal (z-score),[29],0.295
same,glycan array binding signal (z-score),Neu5Ac(a2-6)Gal,0.101
same,glycan array binding signal (z-score),[30],-0.999
same,glycan array binding signal (z-score),Neu5Ac(a2-6)Gal(b1-4)Glc,-0.406
same,glycan array binding signal (z-score),[31],0.84
same,glycan array binding signal (z-score),[32],-1.03
same,glycan array binding signal (z-score),[33],1.36
same,glycan array binding signal (z-score),[34],-0.339
same,glycan array binding signal (z-score),[35],-0.958

# 3 entries from above, with bars between the fields:
binder | measurement | setting | value
B1 | glycan array binding signal (z-score) | [13] | 0.028
same | glycan array binding signal (z-score) | [14] | -0.612
same | glycan array binding signal (z-score) | [15] | -0.78
